The results in this text go back to PubChem BioAssay AID1508600 (Functional Genomics Laboratory (NCATS/FGL), 2020).

Hit rate of the full screen: of about 53,000 sequences, about 3,700 (7%) were called active.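 The calls were made as follows: active = gene knockdowns whose robust z-score for IL-1 alpha signal is at least 2 or at most -2, so actives lie on both sides; inactive = the rest.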 The list shows a part of the results.

The nature of the test: Components of the Cytosolic LPS Sensing Pathway: Gene Identification via Genome-wide siRNA Screen.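 Also: robust z of the log signal after scaling to non-targeting control siRNA wells of the plate.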 The conditions noted are these: RAW264.7 macrophages, IL-1a HTRF, actives lie on both sides, screened at 100 nM (by protocol), cells primed 5 h with Pam3CSK4 first. In outline: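 Supernatant IL-1a by HTRF from RAW264.7 cells primed with Pam3CSK4 (5 hours) and transfected with LipidA (24 hour) after 48h siRNA knockdown at 100 nM; cell viability checked with CellTiter-Glo.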
For orientation: Time-resolved FRET reads energy transfer from a long-lived donor to a nearby acceptor.
As for GGAAUGCUUCAAAAGGGCATT against Fkbp1b, the z-score is inactive: 0.427.

Consider GCUCUGUCCAAGCACUUUATT against P2rx4, for which the z-score is inactive: -0.626.

On to GGAGUUUUACGCACUCUGUTT against Med29, for which the z-score was inactive: 0.117.

As to GCUCUUCGAGUAAAUCACATT against Zfp108, the z-score was inactive: -0.761.

In the case of GAAAUCAGAAGAAAUGAAGTT against Phgr1, the z-score is inactive: -0.451.

In the case of GGUAAACAUGAUAUUUGGGTT against Olfr670, the z-score was inactive: -0.277.

For the sequence CCAUGGUUCUGAUCAAUUUTT against Cyp2j11, the z-score is inactive: -0.274.

GGCCUUCUUGCCAACUACATT against Ino80c: the z-score is inactive: 0.866.

As for GGGUUAGUAAUGAAUGAUGTT against Arpc5l, the z-score was inactive: -0.77.

Consider GGAUACCACUUUAGAACCATT against Fgfr2, for which the z-score is inactive: 0.484.

Take CGUAUUAGUAAUAAGGGCATT against Zc2hc1a: the z-score is inactive: 1.02.

Regarding GCACAUGUCUGUGAUUCAATT against St8sia1, the z-score is inactive: -0.166.

Take GGCAUAUACACAAUUGAUATT against Arsk: the z-score is inactive: -1.27.

With GGAUGAGAACAUUGUGAUUTT against Pask, the z-score was inactive: 0.0868.

With GGCAUCAAAGGAGAUAAGGTT against Col9a2, the z-score is inactive: -0.0774.

For GGACUGAUGAUCAAGCAAATT against Col8a2, the z-score is inactive: -0.387.

Regarding GCUUGUGAGUGGAACUUUCTT against Mcm6, the z-score is inactive: 0.62.

Consider GGAAUGUAUGUCUCAGCUCTT against Olfr45, for which the z-score is inactive: -0.343.

On to GGCCUUUGACUUAUUCGAUTT against Cetn4, for which the z-score was inactive: 0.0369.

GCAGCUCUAGGUGUUCAGUTT against Gjc3: the z-score was inactive: 0.955.

CCUACUUUGGACUCUUUCATT against Tnfsf12: the z-score was active: -2.25.

Consider GGCAGAAGAAAUCUUAAAUTT against Dnali1, for which the z-score was inactive: 0.31.

In the case of GGUCCUCAGAUUUUGGGACTT against Sorcs2, the z-score is inactive: 0.432.

Take GCUACGUGUACCUGGAGUGTT against Cpeb1: the z-score was inactive: -0.502.

As to GGGAUGCAUCAAAAUACAATT against Pdk3, the z-score was active: 4.82.

For GGUAUUCCUCCCUGAGCAUTT against Zfp747, the z-score was inactive: 1.1.

For the sequence GACUAAGCAGUGGAAGAGCTT against Krtap21-1, the z-score was inactive: 0.0863.

For the sequence GCUCCUCAUGAUAUUGGCCTT against Nagk, the z-score is inactive: 0.239.

For the sequence GGAACUCCACUUUCUUUUUTT against Ripply3, the z-score was active: 2.27.

On to CCUGAUCCUGACUAACCGUTT against Htr2b, for which the z-score is inactive: -0.701.

For GGACAGACGUGCACUUAGATT against Garnl3, the z-score is inactive: 0.875.

As for GUGCCCAGAGUCCUAUCCATT against Sprr2j-ps, the z-score was inactive: 0.0491.

GCAGACGAAUAAAUAGCUGTT against Capza1: the z-score is inactive: 1.13.

In the case of GGCUUAAGUUAGGCAAACUTT against Crtc3, the z-score was inactive: -0.0675.

Turning to GGACUUAACUCGUGGAUCCTT against Fancc, the z-score is inactive: 1.23.

GGCCCAACAUAUAUCAAAUTT against Adck2: the z-score is inactive: 1.38.

GGAAAAGCACAGAUUUCUATT against Ap5m1: the z-score is inactive: 1.31.

Regarding GGGAAUGGGUCUUGUAAACTT against Ppat, the z-score was inactive: -1.4.

As to GGGCAAGUAUGGCUAUGUGTT against Pram1, the z-score was inactive: -0.178.

For GGAGGAACAGAGUUUGCACTT against Olfr642, the z-score is inactive: -1.05.

On to GCACUGGACUUAGGAUGGUTT against Ankrd22, for which the z-score is active: 2.2.

For CCGCUAUAUCACGGAGCAGTT against En1, the z-score is active: 2.45.

Consider GGAUCUGUUUCACUGUGGCTT against Corin, for which the z-score was inactive: 0.225.

For the sequence GCUUUCGCCAAUAAAAAAGTT against Slc13a2, the z-score is inactive: 0.265.

GGGUGAUCCAGGUUUGCCATT against Sftpd: the z-score is inactive: -1.94.

On to GCUCCAGUAUCAAAUCGCUTT against Frmd3, for which the z-score was inactive: 0.0325.

For the sequence GGAAAGAAGGGAUUAUCCATT against Faim, the z-score was inactive: 0.372.

As to GGCAACAAUGAGAGAAGAATT against Aimp1, the z-score was inactive: -1.79.

Regarding GGAAGACAACAAGGAAGAGTT against Mucl2, the z-score was inactive: 0.738.

In the case of GGAAAAUAAGUUGUCUGUCTT against Olfr120, the z-score was inactive: -1.45.

With CCGCGUGUGCUCCUUUUUGTT against Zcchc3, the z-score is inactive: -0.627.

GGUCUAUCGUUAUUUGAUATT against Man1a: the z-score was inactive: 0.615.

For GGAUCAUCUUCUUUGGGUCTT against Aig1, the z-score was inactive: 1.03.

For GGAUGGCUUUGGAGAACACTT against Sat1, the z-score was inactive: -0.25.

With GGAUGCUGUCACAAAUGUGTT against Cibar1, the z-score is inactive: -0.983.

With GGCACCAUAGAUGUUUGAGTT against Cyp4f16, the z-score is inactive: -1.34.

On to GGUCACUGAACCUAUUUCCTT against Arhgap15, for which the z-score was active: -2.56.

For the sequence CCUCAAAAAGUGGGAUGAGTT against Gnpat, the z-score was inactive: -0.475.

As to GGCAUAUGUCAAUUUGUUATT against Ntsr1, the z-score was inactive: 0.279.

In the case of CCAGACAAUCUUUCACUGCTT against Gstm6, the z-score was inactive: 1.19.

Regarding GGGAACUUUUUUGAUGGGCTT against Psmb2, the z-score is inactive: -1.13.

Turning to GGAUGAUCUGGUCCUUUUGTT against Stx17, the z-score is inactive: -0.53.

On to GGGUCAAACCCAUACAGCUTT against Dcaf5, for which the z-score is inactive: -1.22.

With CCUGACUCGUAUUAAAACATT against Zbtb7a, the z-score was inactive: -0.546.

Regarding GGAUGUCGAGACCAUAAUCTT against Clcn5, the z-score was inactive: 0.883.

For GGACAGAGCAUCACAGAAGTT against Tmem154, the z-score was active: -2.33.

With GCUGUCCUGCCGUAAUAGATT against Oma1, the z-score is inactive: -0.619.

For the sequence CGAACAACUUGAAGUCACUTT against Tpm1, the z-score is inactive: -0.464.

Turning to GGAAGGACCAAAGCUUUCUTT against Olfr1123, the z-score is inactive: 0.982.

As to GGUCAAAAUUUCCAAACUCTT against Gpr34, the z-score was inactive: -1.4.

For GCCUAAUAAAGAGCCUGUCTT against Pth2, the z-score is inactive: 0.458.

With GGUUGUUUUCCCUAGGGUGTT against Sema6a, the z-score is inactive: -0.543.

Turning to CCUACUGUUUGAGUCCCAGTT against Kmt2b, the z-score is inactive: 1.33.

“GCCCUCAUACCUACUAUGUTT against 4631405J19Rik”: the z-score is inactive: 0.787.

Turning to GGGUAGAUUGAUUGUUGGATT against Dcpp1, the z-score was inactive: 1.37.

Consider GGCCAUCUAAUGACCUUCATT against Madd, for which the z-score was active: -2.7.

As to GGUUUUCUUUCCUUCUUGGTT against Abcd4, the z-score was inactive: 0.923.

As to GGCCUGCGUUCAGAAGAGUTT against Wrn, the z-score was active: 3.46.

GCCUAAUUUUGUGUAUUCUTT against Ndrg4: the z-score was inactive: -1.13.

In the case of GGCCUAAGCAAGUUGCGCATT against Fbxl8, the z-score is inactive: 1.5.

GGAGUUCUGUCCAUUUUGATT against Olfr1198: the z-score is inactive: 0.45.

For GGAAGUGAAAGUGAAUUGGTT against Tia1, the z-score is inactive: -0.488.

In the case of GGGUUUGAUUAGCUUAAUUTT against Olfr905, the z-score was inactive: -0.927.

Consider GGAGAAACUUAAGAGGCUUTT against Trp53bp2, for which the z-score is inactive: -0.827.

For the sequence GAGCACAUCAUGGAACAUCTT against Mcfd2, the z-score was inactive: 0.583.

Take CCCUGCAUUAGAAAUUGAATT against Sst: the z-score was inactive: 0.645.

With GCUACUUCAUGGAAUCUUCTT against Mrgprb8, the z-score was inactive: -0.668.

For “GCCACAAGAAUCUCAUUGUTT against C130046B21Rik”, the z-score was inactive: -1.42.

Regarding GCCUGGUUAUUAAUUUAUCTT against Dzank1, the z-score is inactive: -0.724.

As for GCUCCAACACCCUGUGAAUTT against Prss42, the z-score is inactive: -0.437.

Regarding GGAAGAAUGUGGGUAAAGATT against Gimap9, the z-score was active: -2.01.

Regarding GGAGAAGGAAGAGCUAAAGTT against Tpd52l1, the z-score was inactive: 1.38.

As for “GCACUGAAAGUCUCGAAAGTT against 2410137M14Rik”, the z-score is inactive: 0.286.

GCUCGAUAUUUUGAAGUCCTT against Cntd1: the z-score was inactive: 0.693.

As for GCCACACAAAAUUUGGCAUTT against Fbxw26, the z-score was inactive: 0.796.

For the sequence GGUCAAAGUUAUGCAAUGUTT against Rp9, the z-score is active: -2.02.

As for GGUCAGAAGUCCUUACUGGTT against Cyp2d10, the z-score is inactive: -0.328.

For GGCAGAGCAUUUUGAUUUUTT against Cstf2t, the z-score is inactive: -0.0658.

GCUGGAAAUGACACUGCCUTT against C1qtnf7: the z-score is inactive: 1.45.

With GGAUACCUACCUGGACAGUTT against Dlgap4, the z-score was inactive: -1.23.

On to GGAGAGAGAUGCCCAAAUCTT against Zfp507, for which the z-score was inactive: -0.362.

With CGUGAUUAUGGUCGGUGCUTT against Ube2m, the z-score is inactive: -0.663.

On to GCAGCGGAGGGUCAAAGAATT against Pym1, for which the z-score was inactive: 0.783.

For the sequence CGUUGGUUGAUUAUUACCUTT against Tsc1, the z-score is inactive: -1.63.

Consider GGAACUGUCAAACUGAUUUTT against Tlm, for which the z-score was inactive: -1.34.

Regarding GGCUUUUAUAGCUAAGGUUTT against Spc25, the z-score was active: -2.18.

For the sequence GCGAAUGAAUUUUCCCAUATT against Fam120c, the z-score is inactive: 0.817.
